Experimental data as given in the supplement of paper PMC8288183.
This is one part of the list. Most values come without repeats; read them as rough.

Molecular target: T1, NSUN6 (UniProt Q8TEA1)
T1 sequence: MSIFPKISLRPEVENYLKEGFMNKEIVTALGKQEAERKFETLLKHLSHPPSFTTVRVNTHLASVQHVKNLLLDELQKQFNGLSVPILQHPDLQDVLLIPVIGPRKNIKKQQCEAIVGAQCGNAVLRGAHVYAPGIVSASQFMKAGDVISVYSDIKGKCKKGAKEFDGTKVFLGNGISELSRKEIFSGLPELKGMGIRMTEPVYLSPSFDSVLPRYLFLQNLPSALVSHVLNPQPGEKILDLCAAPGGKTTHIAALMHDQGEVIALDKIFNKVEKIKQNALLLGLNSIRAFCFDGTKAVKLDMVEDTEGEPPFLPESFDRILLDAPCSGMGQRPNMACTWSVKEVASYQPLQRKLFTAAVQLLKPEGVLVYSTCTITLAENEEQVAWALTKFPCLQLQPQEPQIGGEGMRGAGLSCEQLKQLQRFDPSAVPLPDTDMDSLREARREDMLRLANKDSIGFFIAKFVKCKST
Experiment: m5C methylation level at the target C (C/(C+U) bisulfite reads) (fraction); higher = more methylation by NSUN6; extreme values may be limits of the assay
Details: HEK293T (wild-type)
Description: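 High-throughput mutagenesis reporter. About 140 bp oligo-pool variants of four natural Type II m5C substrates (substrate #1 chr15:91425541; #2 RAB15 3'UTR chr14:65413377; #3 SULT2A1 5'UTR chr19:48389569; #4 NAAA CDS chr4:76857361) were cloned as 3'UTR elements of psiCHECK-2 luciferase and transfected into wild-type HEK293T cells. Total RNA was taken 48 h later and m5C level was measured by targeted bisulfite sequencing as C/(C+U) reads at the m5C site (one library).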

[1] = parent substrate: substrate #1 (main figure)

Sequence | m5C methylation level at the target C [1] | m5C methylation level at the target C (parent substrate: substrate #2) | m5C methylation level at the target C (parent substrate: substrate #3) | m5C methylation level at the target C (parent substrate: substrate #4)
UCGUAU | 0 | 0.00131 | 0.00102 | 0.00434
UCUGAU | 0 | 0.00155 | 0 | 0.000476
ACCAGA | 0.00198 | 0.00208 | 0 | 0.00235
GCCUAU | 0.000798 | 0.00161 | 0.0018 | 0.00322
ACGCCG | 0.00117 | 0.00191 | 0.000796 | 0
UCCCCG | 0 | 0.00133 | 0 | 0.000689
CCGCAA | 0.00272 | 0.000562 | 0.000826 | 0.00158
UCAAUU | 0.00232 | 0 | 0.00323 | 0.000573
GCUGCA | 0.000895 | 0 | 0.00432 | 0.00129
ACUUUA | 0.00133 | 0 | 0.00175 | 0
UCCUGC | 0.000498 | 0 | 0.000696 | 0
ACUGUG | 0 | 0.00223 | 0.00303 | 0
GCAUCG | 0.0011 | 0.000788 | 0.00105 | 0
CCUCGC | 0.00124 | 0.00448 | 0 | 0.000614
GCCGUG | 0.00178 | 0.000724 | 0.00193 | 0
CCAGCA | 0 | 0 | 0.00499 | 0.000646
ACGAUA | 0.0019 | 0 | 0 | 0
CCGACA | 0.000838 | 0 | 0.000495 | 0.0055
GCAUUA | 0.00048 | 0.00275 | 0.00049 | 0
ACGAAA | 0 | 0.00478 | 0.00488 | 0.0018
UCACCU | 0 | 0.00312 | 0.00367 | 0.00142
ACUCCC | 0.000509 | 0.00114 | 0 | 0
CCGUCC | 0.000436 | 0 | 0.00087 | 0.000355
GCACAU | 0 | 0 | 0.00144 | 0

Sequence | m5C methylation level at the target C [1] | m5C methylation level at the target C (parent substrate: substrate #2) | m5C methylation level at the target C (parent substrate: substrate #3) | m5C methylation level at the target C (parent substrate: substrate #4)
CCAUGA | 0 | 0 | 0.000371 | 0
ACUGUA | 0.00322 | 0.00189 | 0.0044 | 0.00064
GCCCUC | 0.00642 | 0.00352 | 0.00397 | 0.00211
UCUAUA | 0.00398 | 0 | 0.00217 | 0.00104
ACCUAG | 0.00202 | 0.00259 | 0 | 0
GCAAUG | 0 | 0 | 0.000955 | 0.00155
ACCAUC | 0 | 0 | 0.000751 | 0
ACCUCG | 0.00667 | 0.00358 | 0 | 0.00257
UCUGUC | 0.000716 | 0.00336 | 0 | 0
ACUCUG | 0.000567 | 0 | 0.000772 | 0.00984
CCAGUG | 0.00114 | 0 | 0.00129 | 0.00964
CCCGCC | 0.00139 | 0.000832 | 0.000632 | 0
CCGGCA | 0.00233 | 0.00203 | 0.0012 | 0.00126
GCUGUC | 0.005 | 0.000643 | 0.00213 | 0.00122
UCAAGC | 0.00118 | 0 | 0 | 0.00138
CCAUCC | 0 | 0.00128 | 0.00127 | 0.000582
UCUGUA | 0.00147 | 0.00156 | 0.00217 | 0
CCAAAG | 0.0152 | 0.0043 | 0.0102 | 0
CCGGCG | 0.0016 | 0 | 0.000972 | 0.00771
UCAUCA | 0 | 0.00152 | 0.00125 | 0.00107
GCCACA | 0.00136 | 0.00271 | 0.00237 | 0.00125
CCCUGA | 0.00868 | 0 | 0.00142 | 0
ACUUCU | 0 | 0.00893 | 0.00364 | 0
GCUGUA | 0.00116 | 0.00136 | 0.00513 | 0.000764

2 neighbouring entries out of the list so far, for reference:
Sequence | m5C methylation level at the target C [1] | m5C methylation level at the target C (parent substrate: substrate #2) | m5C methylation level at the target C (parent substrate: substrate #3) | m5C methylation level at the target C (parent substrate: substrate #4)
GCUGUC | 0.005 | 0.000643 | 0.00213 | 0.00122
UCAAGC | 0.00118 | 0 | 0 | 0.00138

Next records:

Sequence | m5C methylation level at the target C [1] | m5C methylation level at the target C (parent substrate: substrate #2) | m5C methylation level at the target C (parent substrate: substrate #3) | m5C methylation level at the target C (parent substrate: substrate #4)
CCUGCG | 0.00138 | 0 | 0.000651 | 0
GCGUGU | 0.00754 | 0.0136 | 0 | 0.00865
GCGAAU | 0.00419 | 0.002 | 0.00168 | 0.00186
CCAAUA | 0.000843 | 0.00977 | 0 | 0.0107
GCUCAC | 0.00139 | 0 | 0.000442 | 0.00363
GCCUCG | 0.00166 | 0.00139 | 0.000439 | 0.00595
ACAAAC | 0.000664 | 0.000662 | 0 | 0
ACUACG | 0.00106 | 0 | 0.0079 | 0.000706
GCCUAA | 0.00151 | 0.00087 | 0.000351 | 0.000405
UCGUUU | 0 | 0 | 0.00106 | 0.00145
UCCGCC | 0.00134 | 0 | 0.00115 | 0.00412
CCGUGG | 0.000889 | 0.0012 | 0.00106 | 0.00273
ACACGC | 0.000727 | 0 | 0 | 0.00166
CCACCU | 0 | 0 | 0.000301 | 0.00223
ACCGAA | 0.00504 | 0.00152 | 0.00202 | 0
GCUGCU | 0.00144 | 0 | 0.000363 | 0
GCUCUA | 0.123 | 0.00187 | 0.0137 | 0.00476
GCCAUG | 0.00114 | 0.00108 | 0.00105 | 0.000496
CCUCGG | 0 | 0.00726 | 0.00225 | 0
UCAGGU | 0 | 0 | 0 | 0.00061
ACUGCC | 0.00263 | 0 | 0.00241 | 0
CCAUUG | 0.00251 | 0 | 0.000436 | 0
ACGCGG | 0 | 0.0036 | 0.00579 | 0.000531
CCUGAU | 0.000534 | 0 | 0 | 0

Sequence | m5C methylation level at the target C [1] | m5C methylation level at the target C (parent substrate: substrate #2) | m5C methylation level at the target C (parent substrate: substrate #3) | m5C methylation level at the target C (parent substrate: substrate #4)
ACGUAC | 0.00369 | 0 | 0.000483 | 0.0022
CCUGAC | 0 | 0 | 0 | 0.00103
ACUUAU | 0 | 0 | 0.00115 | 0.000829
UCCUUG | 0.00227 | 0.00345 | 0.00113 | 0.000786
CCGGGC | 0 | 0.00168 | 0 | 0
CCGCUU | 0.0048 | 0 | 0.00117 | 0.00102
CCGCCU | 0.00261 | 0.00109 | 0.000759 | 0.00127
CCGUUU | 0 | 0.00123 | 0.000675 | 0.000544
CCAGCC | 0 | 0.00289 | 0.00311 | 0.000529
CCUCAC | 0.00591 | 0.0138 | 0 | 0.00325
UCCGCA | 0.00339 | 0 | 0 | 0.00137
ACCGCU | 0 | 0 | 0 | 0.00282
UCUUUG | 0.00293 | 0 | 0.000509 | 0.000826
UCAACA | 0.00559 | 0.00932 | 0 | 0.00187
ACCACC | 0.00225 | 0 | 0.0018 | 0
UCGCUC | 0.00299 | 0.000853 | 0 | 0
GCCGGA | 0.00167 | 0.00303 | 0.000366 | 0.00744
GCCAGG | 0.0098 | 0.00769 | 0.0113 | 0.00303
CCAAAC | 0 | 0 | 0.00323 | 0.000671
CCUCUC | 0 | 0 | 0.00105 | 0
ACGAUU | 0 | 0.000887 | 0.00172 | 0.000448
